# Reference: article PMC7893822
# By UniProt entry, the sequences of proteins in these tests, tags left out.
# UniProt Q28923: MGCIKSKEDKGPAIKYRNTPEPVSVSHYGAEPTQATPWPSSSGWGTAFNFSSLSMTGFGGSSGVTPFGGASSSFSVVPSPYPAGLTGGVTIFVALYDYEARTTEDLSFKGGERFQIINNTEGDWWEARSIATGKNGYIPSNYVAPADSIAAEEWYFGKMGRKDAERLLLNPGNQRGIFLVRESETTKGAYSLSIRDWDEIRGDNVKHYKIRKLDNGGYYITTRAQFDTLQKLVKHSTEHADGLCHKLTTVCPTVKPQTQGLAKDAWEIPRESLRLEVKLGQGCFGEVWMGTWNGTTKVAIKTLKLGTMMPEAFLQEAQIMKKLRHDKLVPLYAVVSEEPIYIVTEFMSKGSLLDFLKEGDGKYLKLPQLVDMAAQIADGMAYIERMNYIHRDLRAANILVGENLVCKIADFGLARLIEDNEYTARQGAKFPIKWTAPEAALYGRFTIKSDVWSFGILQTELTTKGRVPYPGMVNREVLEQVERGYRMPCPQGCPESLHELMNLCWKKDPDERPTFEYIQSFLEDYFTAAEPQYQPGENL
# These are yes or no findings as the source states them, for the method shown. Binding seen in cells or lysates may run through a third protein. Some binding calls cover weakened binding; strength is not graded here. Sequences can lack the tags named with a protein.
# Target: T1, CDCP1-myc overexpressed in MDCK cells (human) (UniProt Q9H5V8)
# T1 sequence: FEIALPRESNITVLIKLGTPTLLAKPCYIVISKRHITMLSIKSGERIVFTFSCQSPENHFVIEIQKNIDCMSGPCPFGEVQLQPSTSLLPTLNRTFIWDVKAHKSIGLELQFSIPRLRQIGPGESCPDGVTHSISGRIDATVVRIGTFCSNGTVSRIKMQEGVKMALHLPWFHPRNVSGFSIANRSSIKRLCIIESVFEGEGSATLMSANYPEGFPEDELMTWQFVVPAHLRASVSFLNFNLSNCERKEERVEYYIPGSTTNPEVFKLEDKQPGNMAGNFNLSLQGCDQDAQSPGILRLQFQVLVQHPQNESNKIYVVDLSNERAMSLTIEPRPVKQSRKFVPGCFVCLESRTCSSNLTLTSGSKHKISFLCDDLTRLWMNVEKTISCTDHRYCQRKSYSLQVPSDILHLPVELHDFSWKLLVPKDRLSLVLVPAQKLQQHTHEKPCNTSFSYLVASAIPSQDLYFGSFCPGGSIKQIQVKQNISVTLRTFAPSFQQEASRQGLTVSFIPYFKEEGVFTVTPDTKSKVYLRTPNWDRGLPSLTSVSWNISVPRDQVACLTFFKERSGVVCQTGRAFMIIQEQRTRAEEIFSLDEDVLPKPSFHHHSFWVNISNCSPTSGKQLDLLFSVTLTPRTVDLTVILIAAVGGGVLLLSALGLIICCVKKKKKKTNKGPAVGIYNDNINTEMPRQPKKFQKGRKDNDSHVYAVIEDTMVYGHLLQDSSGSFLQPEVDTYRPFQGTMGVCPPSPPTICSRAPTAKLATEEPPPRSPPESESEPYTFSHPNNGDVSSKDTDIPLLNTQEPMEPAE
# Experiment: co-IP; DRM fractions of CDCP1-myc-overexpressing MDCK cells; immunoprecipitation with an anti-myc-tag, anti-Src, anti-Lyn or anti-Yes antibody; immunoblotting
substance,measurement,value
"Yes, endogenous in MDCK cells (from UniProt Q28923 1-539) (enzyme)",binding,binds
